In PubChem BioAssay AID720504 (National Center for Advancing Translational Sciences (NCATS), 2013):
The campaign covered roughly 360,000 compounds. About 10,000 (2.8%) were called active. The shares of active, inactive and inconclusive entries below differ from those in the screen. The call rests on the fitted dose curve; in most records, active means well fitted inhibition curve with a large enough effect; inconclusive means small, poorly fitted or top-dose-only effect; inactive means flat fitted curve, though single readings scatter. Where the call is inconclusive, the potency comes from a doubtful curve fit.

Protein sequences, listed by entry. Tags and fused reporters are not part of them.
UniProt P53350, whole entry, looked up: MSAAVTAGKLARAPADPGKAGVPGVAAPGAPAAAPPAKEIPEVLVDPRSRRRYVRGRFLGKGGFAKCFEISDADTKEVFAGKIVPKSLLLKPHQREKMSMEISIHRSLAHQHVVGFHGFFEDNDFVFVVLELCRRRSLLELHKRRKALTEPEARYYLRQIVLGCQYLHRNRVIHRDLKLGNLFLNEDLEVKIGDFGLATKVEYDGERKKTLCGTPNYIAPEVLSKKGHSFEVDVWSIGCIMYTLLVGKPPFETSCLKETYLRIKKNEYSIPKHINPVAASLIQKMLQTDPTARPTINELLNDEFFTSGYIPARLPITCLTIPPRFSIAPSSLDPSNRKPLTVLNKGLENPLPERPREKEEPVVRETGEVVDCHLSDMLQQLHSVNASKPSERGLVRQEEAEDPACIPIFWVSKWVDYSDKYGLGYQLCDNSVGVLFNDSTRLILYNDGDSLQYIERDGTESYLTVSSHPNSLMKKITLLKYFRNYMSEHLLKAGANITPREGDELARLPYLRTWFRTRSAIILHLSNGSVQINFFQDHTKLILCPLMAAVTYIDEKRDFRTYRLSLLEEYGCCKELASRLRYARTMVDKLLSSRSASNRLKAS

molecular target: Serine/threonine-protein kinase PLK1 (Homo sapiens) (UniProt P53350); experiment: qHTS for Inhibitors of PLK1-PDB (polo-like kinase 1 - polo-box domain): Primary Screen; conditions: Plk1 PBD binding of FITC phosphopeptide, fluorescence polarization; further: nearly all actives have a fitted effect of over 65% in size; on max response, negative = inhibition: series mostly up to about 57 µM
On the % scale 0 is the no-effect control and ±100 the full control effect; potency means the concentration at half of the fitted maximal effect.

Row | Structure (SMILES) | Potency | max response, negative = inhibition
1 | O=C(Nc1cccc(C(F)(F)F)c1)NC1CCN(S(=O)(=O)c2ccc(F)cc2)CC1 | inconclusive: 26.7 µM [inhibitor, partial curve] | 
2 | O=C(CSc1nnc(-c2ccccc2)o1)c1ccc2c(c1)OCCO2 | inconclusive: 29.9 µM [inhibitor, partial curve] | 
3 | CCC(C)C(NC(=O)OC(C)(C)C)C(=O)NC(C)C(N)=O (stereo not drawn) |  | inactive: 0.98%
4 | CC(C(=O)NC1CCCC1)N(C(=O)Cn1nnc(-c2ccc(F)cc2)n1)c1ccccc1F (stereo not drawn) |  | inactive: -9.16%
5 | O=C(Nc1cc(S(=O)(=O)N2CCOCC2)ccc1O)c1ccc(NS(=O)(=O)c2ccc(Cl)s2)cc1 | inconclusive: 26.7 µM [inhibitor, single point] | 
6 | Cc1ccc(/C=C/C(=O)NCc2ccc3c(c2)OCO3)o1 | inconclusive: 23.8 µM [inhibitor, single point] | 
7 | O=C(NCCO)c1ccc2c3n(nc2c1)-c1ccc(Cl)cc1CO3 |  | inactive: -2.48%
8 | Fc1ccc(-n2cc(-c3ccccc3)c3c(=S)nc[nH]c32)cc1 | inconclusive: 21.2 µM [inhibitor, partial curve] | 
9 | O=C(O)CSc1nc(-c2ccc(Cl)cc2)nc2c1oc1ccccc12 | inconclusive: 29.9 µM [inhibitor, single point] | 
10 | CC1(C)C(=O)C=CC(=O)C(C)(C)C(=O)C=CC(=O)C(C)(C)C2=CC=C(O2)C(C)(C)C(=O)C=CC1=O | active: 5.97 µM | 
11 | O=C(CSc1ccccc1F)NC(=O)NCc1ccco1 | inconclusive: 29.9 µM [inhibitor, partial curve] | 
12 | CCC1CCc2sc(C(=O)NNC(=S)NCC3CCCO3)cc2C1 (stereo not drawn) | inconclusive: 29.9 µM [inhibitor, partial curve] | 
13 | Cc1sc2nc(CN3CCOCC3)nc(Oc3ccc(NC(=O)c4ccco4)cc3)c2c1C | inconclusive: 23.8 µM [inhibitor, partial curve] | 
14 | CC(C)Nc1nc(Cl)nc(N(C#N)CN2C(=O)c3ccccc3C2=O)n1 |  | inconclusive: -33.9% [inhibitor]
15 | CCOC(=O)C1(C)/C(=N/Nc2ccc(Cl)cc2)C(=O)C(=O)N1c1ccccc1 (stereo not drawn) | inconclusive: 29.9 µM [inhibitor, partial curve] | 
16 | O=C(c1ccco1)N1CCN(C(c2ccccc2Cl)c2nnnn2CC2CCCO2)CC1 (stereo not drawn) |  | inconclusive: -31.3% [inhibitor]
17 | Cc1cc(C)cc(NC(=O)CSc2ccc(-c3cccs3)nn2)c1 | inconclusive: 26.7 µM [inhibitor, partial curve] | 
18 | CC(=O)N(C(C)=O)N1C(=O)C2C3c4ccccc4C(c4ccccc43)C2C1=O (stereo not drawn) | inconclusive: 23.8 µM [inhibitor, single point] | 

Copied from above: compounds 8–10
Row | Structure (SMILES) | Potency | max response, negative = inhibition
8 | Fc1ccc(-n2cc(-c3ccccc3)c3c(=S)nc[nH]c32)cc1 | inconclusive: 21.2 µM [inhibitor, partial curve] | 
9 | O=C(O)CSc1nc(-c2ccc(Cl)cc2)nc2c1oc1ccccc12 | inconclusive: 29.9 µM [inhibitor, single point] | 
10 | CC1(C)C(=O)C=CC(=O)C(C)(C)C(=O)C=CC(=O)C(C)(C)C2=CC=C(O2)C(C)(C)C(=O)C=CC1=O | active: 5.97 µM | 
